# Library screening results

Protein sequences, listed by entry. Tags and fused reporters are not part of them.
UniProt E9BF75, entry or part of it: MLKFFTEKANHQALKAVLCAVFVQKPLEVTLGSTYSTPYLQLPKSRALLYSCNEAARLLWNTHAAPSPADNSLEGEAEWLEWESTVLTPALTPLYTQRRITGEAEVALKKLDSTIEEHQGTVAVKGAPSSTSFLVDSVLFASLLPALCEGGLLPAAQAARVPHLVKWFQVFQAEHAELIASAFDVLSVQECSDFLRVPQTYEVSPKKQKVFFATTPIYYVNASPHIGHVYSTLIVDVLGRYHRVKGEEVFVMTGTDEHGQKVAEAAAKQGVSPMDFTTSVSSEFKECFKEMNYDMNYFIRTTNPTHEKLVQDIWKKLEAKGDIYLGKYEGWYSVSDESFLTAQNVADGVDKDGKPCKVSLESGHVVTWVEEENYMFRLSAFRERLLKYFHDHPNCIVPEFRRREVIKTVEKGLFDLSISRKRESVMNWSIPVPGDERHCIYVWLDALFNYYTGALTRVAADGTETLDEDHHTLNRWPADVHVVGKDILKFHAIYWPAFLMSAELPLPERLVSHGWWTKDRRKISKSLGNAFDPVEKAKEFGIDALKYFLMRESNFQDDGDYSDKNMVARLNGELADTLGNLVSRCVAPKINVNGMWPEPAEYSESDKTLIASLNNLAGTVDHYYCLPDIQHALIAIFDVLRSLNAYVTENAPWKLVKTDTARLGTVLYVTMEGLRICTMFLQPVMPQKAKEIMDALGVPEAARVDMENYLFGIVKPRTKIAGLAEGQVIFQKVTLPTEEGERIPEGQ

Data taken from ChEMBL document CHEMBL3988442, “University of Dundee, Small-Polar-MMV Screening Library” (2021).

All values are in %. The controls that fix the scale are not given in the record; negative values are as filed. Compounds were drawn at random from those tested, without regard to their results.

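Methionyl-tRNA synthetase (putative), Leishmania donovani (UniProt E9BF75). Primary screen of methionyl-tRNA synthetase; the read-out is not stated. The test concentration is not given. Values are per cent inhibition. Of about 68,000 compounds tested this way, about 24 (0.035%) reached 50% or more in at least one test.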

SMILES	inhibition
OCC1(Cc2ccccc2F)CCCN(c2ccc3ccccc3n2)C1 (configuration not stated)	13.12%
CCN(C(=O)NCCc1cccc(F)c1F)C(C)CS(C)(=O)=O (configuration not stated)	13.03%
C[C@H]1C[C@H]2CN(C(=O)CCc3ccccc3)CC[C@H]2O1	15.92%
CC(C)CC(NC(=O)CSc1ccc(F)c(Cl)c1)C(=O)O (configuration not stated)	10%
NS(=O)(=O)CCN1CCOC(c2ccc(Cl)cc2)C1 (configuration not stated)	1.047%
COc1ncccc1CNc1snc(Cl)c1C#N	13.77%
Cc1csc(N2CCCN(Cc3ccn(C)c(=O)c3)CC2)n1	14.52%
CO[C@H]1CC[C@H]2[C@H]1OCCN2C(=O)CCOc1ccccc1	14.99%
CC(C)(C)C(=O)NCCc1cc2nc(-c3ccncc3)ccn2n1	9.062%
COc1c(CNCc2cccc(CN(C)C)c2)c(C)nn1C	10.46%
Cc1cccc(C)c1NC(=O)c1cccc(CN2CCCC2C)c1 (configuration not stated)	5.897%
CNC(=O)[C@@H]1[C@@H](c2ccccc2)CN2CCN(Cc3cc(C)no3)C[C@H]12	12.33%
C=Cn1cc(CN2CCc3nc(-c4cccnc4)nc(O)c3C2)c(C)n1	19.79%
O=C(NCC1(CO)CC1)c1ccccc1Cl	6.643%
CC(C)OC(=O)[C@@H]1CCN(C(=O)c2ccccn2)[C@@H]1c1ccc(F)cc1	6.824%
O=C(Nc1ccccn1)C1(n2cnnn2)CCCCC1	16.33%
COc1ccccc1C(=O)NCCCN1CCCC1C(=O)N(C)C (configuration not stated)	21.01%
COc1cccc(-c2n[nH]cc2CNC2CCC(O)CC2)c1 (configuration not stated)	15.47%
Cc1cc2c(c(-c3cncc(C(=O)N4CCCC4)n3)c1)OC(CN)C2 (configuration not stated)	11.54%
Cc1cc(NC(=O)CN2CCN(c3nccs3)C(C)C2)n(C)n1 (configuration not stated)	5.397%
COc1ccc(CCNc2cc(-c3nc(C)no3)ccn2)cc1OC	7.796%
Cc1ncoc1C(=O)N1CC[C@@]2(C[C@H](NS(C)(=O)=O)CCO2)C1	15.42%
COCC1CN(S(=O)(=O)c2ccccc2)Cc2ncnn2C1 (configuration not stated)	7.283%
Cc1ccc(C(=O)N2CCC(c3nccn3Cc3ccncc3)CC2)s1	14.72%
COC1CCN(S(=O)(=O)N2CC(c3ccccc3)C(C)(C)C2)CC1 (configuration not stated)	1.005%
CCCNc1ccc(C(=O)NCCc2ccc(Cl)cc2)cn1	14.72%
CCN1C(=O)CCCC12CCCN(C(=O)c1ccncc1F)C2 (configuration not stated)	12.09%
C1CCN(CCOC2CCNCC2)CC1	8.377%
CN(C)CC1(O)CCCN(C(=O)c2cnc(-c3ccccn3)nc2)C1 (configuration not stated)	0.2564%
Nc1nc(CNc2ncnc3c2CCN(Cc2ccoc2)CC3)cs1	13.49%
COc1ccccc1CNC(=O)CN(C)C(C)c1nccs1 (configuration not stated)	21.01%
O=C(CCCc1ccccn1)NCC(O)c1c(F)cccc1F (configuration not stated)	12.5%
O=C(CC(F)(F)F)NCC(O)c1ccc2ccccc2c1 (configuration not stated)	11.98%
Cc1ccc(C(=O)NCCN2CCOCC2)c(=O)[nH]1	2.857%
CCNC(=O)CCc1c(C)nc2cc(O)nn2c1C	10.12%
CCC(NC(=O)c1ccco1)c1ccccc1OCC(=O)N1CCCC1 (configuration not stated)	14.72%
CC(C)Cc1cc(-c2cc(-c3ccc[nH]3)nc(N)c2C#N)n[nH]1	13.98%
CCc1nnc(CN2CCOC(Cn3cc(C)cn3)C2)o1 (configuration not stated)	10.89%
O=C(NC[C@]1(O)CN(Cc2ccccc2F)C[C@H]1O)c1ccccn1	17.83%
CCC1(CNC(=O)NC(c2nnc3n2CCC3)C(C)C)CCC1 (configuration not stated)	6.267%
O=C(O)c1ccc(S(=O)(=O)Nc2ccccc2F)c(F)c1	0.2564%
CCC(CC)C(=O)N1CCOC2(COCCN(CC(=O)NC)C2)C1 (configuration not stated)	6.052%
COc1ccc(CN2C[C@@H]3CN(CCO)C[C@@H]3C2=O)cc1	10.56%
Cc1nccn1-c1cccc(C2CCCN(C3CCCCC3)C2)n1 (configuration not stated)	18.15%
Cc1cccc(C(C(=O)NCCn2cccc2)N(C)C)c1 (configuration not stated)	9.355%
CC(NC(=O)CSCC#N)c1ccc(Cl)cc1 (configuration not stated)	11.43%
CC(=O)N1CCN([C@@H]2CCC[C@@H](N(C)C(=O)C3CC3)[C@H]2O)CC1	9.176%
N#CC1(NC(=O)c2cc(Cl)c3c(c2)OCCCO3)CCC1	23.87%
COc1ccc(C)cc1CNCc1ccc(-n2nc(C)cc2C)nc1	17.35%
Cn1c(=O)oc2cc(Nc3ncc(C#N)cc3Cl)ccc21	6.873%
Cc1ccc(C(=O)NC(C)CN2CCCC2=O)c(=O)[nH]1 (configuration not stated)	4.433%
C=C(C)COc1ccc(C(CC(=O)OC)c2oc(C)cc(=O)c2O)cc1 (configuration not stated)	10.06%
CC(C)NC(=O)CNC(=O)OC(C)(C)C	15.14%
COc1cccc(CN2CCc3nc(C(=O)NCC(C)C)sc3CC2)c1	9.408%
CCOCCCn1c(NC(=O)c2ccnc(C)n2)nc2ccccc21	14.77%
CN(Cc1ccccc1)C(=O)CCNS(=O)(=O)c1cccnc1	-4.775%
Cc1ccc(CC(=O)N2CSCC2C(=O)N(C)Cc2ccco2)o1 (configuration not stated)	9.449%
CCn1nc(C)cc1C(=O)N1CCOc2cc(C)ccc21	8.239%
CNC(=O)COC1COC2(CCN(c3cnccn3)CC2)C1 (configuration not stated)	13.49%
Cc1nn(C)c(C)c1C1CCCN1Cc1nc(C2CC2)no1 (configuration not stated)	5.397%
Cn1cnnc1S(=O)(=O)C1CCN(S(=O)(=O)C2CC2)CC1	3.448%
Cc1ccc(C)c2c(O)cc(CN3CCC(=O)NCC3C)nc12 (configuration not stated)	14.71%
CCc1c(C)nn(CCNC(=O)C2CCCN(C(=O)N(C)C)C2)c1C (configuration not stated)	17.04%
CN(Cc1cccc2cnccc12)C(=O)CCc1n[nH]c2c1CCCC2	12.27%
Cc1c[nH]c(CN(C)C(C(=O)O)c2c(F)cccc2OC(C)C)n1 (configuration not stated)	11.87%
O=C1CN(C(=O)c2nnn(-c3ccc(C(F)(F)F)cc3)n2)CCN1	10.79%
Cc1cc(NC(=O)N(CCO)Cc2ccsc2)no1	10.38%
Cc1ncsc1-c1nnc(C2CCN(Cc3cccc(Cl)c3)CC2)o1	5.412%
Cc1cc(=O)n(C)cc1NC(=O)CC1CCC1	13.94%
CCC1CN(C(=O)COc2ccc(NC(C)=O)cc2)CCO1 (configuration not stated)	-4.348%
CC(C)C1COC2(CCN(Cc3ccco3)CC2)C1 (configuration not stated)	6.667%
COc1ccc(NC(=O)N2CCCC2c2ccco2)c(OC)c1 (configuration not stated)	1.809%
Cc1cc(CN2CCN(c3ccc4nncn4n3)C(C)C2)on1 (configuration not stated)	1.994%
COCCC(=O)N1CCc2nc(N3CCOCC3)nc(NC(C)C)c2C1	8.242%
O=C(NCCCC(=O)N1Cc2ccccc2C1)NCc1nccs1	6.793%
Cc1ccsc1C(=O)N(C)Cc1ccncc1	9.29%
CCc1nc(CN2CCCN(C(=O)c3occc3C)CC2)cs1	10.44%
Cc1ccc(CNCc2c(C(C)C)nn(C)c2N2CCOCC2)s1	11.54%
Cn1cc(C(=O)N2CC[C@H](N3CCOCC3)[C@H](CCCO)C2)cn1	9.589%
Cc1cc(CN2CCC(CNC(=O)c3ccc4[nH]cnc4c3)C2)[nH]n1 (configuration not stated)	4.467%
Cc1csc(N2CCCN(CCC(=O)NC(N)=O)CC2)n1	16.87%
CCS(=O)(=O)CCN(CC1CCCO1)C1CCCC1 (configuration not stated)	11.52%
COCC(=O)N1CCN(c2cc(-n3cccc3)nc(C)n2)CC1	12.42%

For reference, 8 entries once more:

Result for Cc1cccc(C(C(=O)NCCn2cccc2)N(C)C)c1 (configuration not stated) was 9.355%.
Result for COc1ncccc1CNc1snc(Cl)c1C#N was 13.77%.
Result for Cc1cc(CN2CCC(CNC(=O)c3ccc4[nH]cnc4c3)C2)[nH]n1 (configuration not stated) was 4.467%.
Result for CC(C)NC(=O)CNC(=O)OC(C)(C)C was 15.14%.
Result for CCC(NC(=O)c1ccco1)c1ccccc1OCC(=O)N1CCCC1 (configuration not stated) was 14.72%.
Result for CC(C)Cc1cc(-c2cc(-c3ccc[nH]3)nc(N)c2C#N)n[nH]1 was 13.98%.
Result for CO[C@H]1CC[C@H]2[C@H]1OCCN2C(=O)CCOc1ccccc1 was 14.99%.
Result for CCS(=O)(=O)CCN(CC1CCCO1)C1CCCC1 (configuration not stated) was 11.52%.